Assay results from US11111222B2, “Hydroxyeicosatrienoic acid compounds and their use as therapeutic agents” (THE REGENTS OF THE UNIVERSITY OF MICHIGAN, priority 2016, dated 2021).

System: 12-LOX and COX-1 metabolites
Assay: LC/MS quantification of oxylipins released from washed human platelets
Type: cell-based
Settings: DGLA 10 μM, 10 min, PAR4-AP 200 μM, vs DMSO

Compound: CCCCC/C=C\C/C=C\C/C=C\CCCCCCC(=O)O [DGLA, Dihomo-γ-linolenic acid]
- amount of AA-dependent metabolites from 12-LOX (12-HETE) or COX-1 (TxB2 or PGE2): unaltered
- amount of DGLA-dependent COX-1 and 12-LOX oxylipins: significantly potentiated
